Reference: PubChem BioAssay AID2685 (National Center for Advancing Translational Sciences (NCATS), 2010)
About 2,100 (0.66%) of roughly 320,000 compounds were called active. Inconclusive results, whose numbers are uncertain, are shown with a selection of clear calls. Calls come from the whole dose curve; as a rule, active = well fitted inhibition curve with a large enough effect in the signal ratio, with a control signal flat (not every such curve was filed as active); inconclusive = small, poorly fitted or top-dose-only effect, or effect the other way, or a change in a side signal; inactive = flat fitted curve, though single readings scatter; the % refers to the signal ratio. Where the call is inconclusive, the potency comes from a doubtful curve fit.

Assay: qHTS Assay for Lipid Storage Modulators in Drosophila S3 Cells
Conditions: BODIPY lipid droplet fluorescence, 18-24 h, cells fed with added oleic acid; lipid storage change, negative = inhibition: at 46.1 µM (top of the series) unless noted
How it was run: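 Drosophila S3 cells got compounds at several concentrations plus oleic acid (400 uM solution). Laser-scanning cytometry with 488 nm excitation read lipid droplets at 500-530 nm and cells at 575-640 nm. Percent activity was relative to 20 uM Triacsin C.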
% is set by controls: 0 for no effect and ±100 for the full control effect; potency is the fitted concentration of half-maximal effect.

Lipid storage change, negative = inhibition, inactive:
O=C(CCN1C(=O)/C(=C/c2ccccc2)SC1=S)Nc1ccccn1
CCn1cc(CN2CCC(Oc3ccc(C(=O)N4CCCCC4)cc3)CC2)cn1
O=C(O)c1ccc(N2N=C(c3ccccc3)CC2c2ccccc2)cc1 (stereo unspecified)

Lipid storage change, negative = inhibition, inconclusive:
Cc1c(NC(=O)C(C)OC(=O)CCC2CCCC2)c(=O)n(-c2ccccc2)n1C (stereo unspecified) -8.97%
Oc1cccc(/C=N\Nc2nncc(-c3ccccc3)n2)c1 -18.6%
CCCN1C(=O)/C(=C\c2nc3ccccc3c(=O)[nH]2)c2ccccc21 -29.9%
CCN(CC)CCNC(=O)c1sc2nc(-c3ccccc3)cn2c1C -28.9%
CN(CC(=O)Nc1ccccc1Cl)C(=O)c1ccc(COc2ccccc2)cc1 -42.2%
O=C(C1=C[C@@H](C2CC2)C[C@@H](OCCCCO)O1)N1CCOCC1 -24%
FC(F)(F)c1cccc(-c2ccc(/C=N/Nc3nncc(-c4ccccc4)n3)o2)c1 -27.2%
O=C(Cn1nc(C(F)(F)F)c2c1CCCC2)NCc1ccco1 2.81%
COc1cc(C(=O)NCCSc2ccc(Cl)cc2)cc(OC)c1OC 11.3%
CCCCCCCCCCCCN1C/C(=C\C(=O)OCC)c2cc(C(F)(F)F)ccc2S1(=O)=O 94.2%
O=C(N[C@@H](Cc1ccccc1)C(=O)N1CCN(S(=O)(=O)c2ccc(F)cc2)CC1)c1ccco1 29.8%
Cc1ccccc1C(=O)N1CCN(c2ccc(NC(=O)c3ccc([N+](=O)[O-])o3)cc2)CC1 -87.3%
O=C(NCCc1ccc(F)cc1)c1cc(-c2ccncc2)nc2ccccc12 8.17%
O=c1[nH]c2ccccc2n1CCCN1CCCCC1 3.65%
COc1ccc(C(=O)/C=C/N2CCCCC2)cc1OC 4.38%
O=S(=O)(c1ccc2c(c1)CCCN2)N1CCCCC1 22.4%
COc1cc(C2C(C(=O)C(C)(C)C)=C(O)C(=O)N2Cc2ccccc2)ccc1O (stereo unspecified) -49.6%
COc1ccc(OCC(=O)NNC(=S)NC(=O)C2CCCCC2)cc1 55.2%
C/C(=N\NC(=O)c1c[nH]c2ccccc12)c1ccc(C)s1 47.4%
CCOc1ccccc1NC(=O)C1CCN(S(C)(=O)=O)CC1 -1.82%
CCOC(=O)C1CCN(C(=O)C2(NC(=O)Nc3ccc(F)cc3F)CCCCC2)CC1 -100%
COCCN(C(=O)COC(=O)CCOc1ccccc1C)c1c(N)n(Cc2ccccc2)c(=O)[nH]c1=O -1.78%
O=C1C2CCCN2C(c2ccc(Br)cc2)N1c1ccc(F)cc1 (stereo unspecified) 55.9%
CN1C(=O)c2ccc(NC(=O)C3CCCCC3)cc2C1=O 2.74%
Cc1ccccc1C(=O)OC1CCN(C)CC1 -15.2%
Cc1ccc(NC(=O)CN2C(=O)c3ccccc3S2(=O)=O)cc1C -91.1%
O=C(Nc1cccc(Cl)c1N1CCCC1)c1cccc(-c2cc3ccccc3oc2=O)c1 37.5%
C/C(=N\NC(=O)Cc1c[nH]c2ccccc12)c1ccc2ccccc2c1 1.23%
COc1ccc(C(=O)Nc2ncccc2C)cc1S(=O)(=O)N1CCCc2ccccc21
COC(=O)/C(=N/Nc1ccccc1C)Sc1nnc(C(O)c2ccccc2)n1-c1ccccc1 (stereo unspecified) -13.1%
OCCNCc1cccc(Br)c1 -34.3%
Cc1onc(-c2ccccc2Cl)c1C(=O)NCC(=O)O -5.41%
CC(=O)Nc1ccc(S(=O)(=O)NNc2cccc(C)c2)cc1 231%
COC(=O)/C=C/c1cnc2ccccc2c1 6.34%
CC(C)(C#CC(O)(c1ccccc1)c1ccccc1)N1CCCC1 -18.4%
O=C1CC(Cc2ccccc2)C(=O)N1c1ccccn1 (stereo unspecified) -4.74%
Cn1nnnc1SCC(=O)NCc1cc([N+](=O)[O-])ccc1O 50.1%
CCOC(=O)c1cccc(NC(=O)CSc2nncn2-c2ccccn2)c1 -100%
O=C(O)CNC(=O)/C(=C\c1ccco1)NC(=O)c1ccco1 -10.5%
O=[N+]([O-])c1ccc(C(O)CNC(=S)Nc2ccccc2)cc1 (stereo unspecified) 82.8%
CC(C)Sc1nc2[nH]ncc2c(=O)[nH]1 22.7% [at 9.22 µM]
CN(C(=O)c1ccncc1)C1CCS(=O)(=O)C1 (stereo unspecified) -9.33%
O=C1CC2c3ccccc3C1C1C(=O)N(CCc3ccccc3)C(=O)C21 (stereo unspecified) 12.8%
Cc1ccc(C(=O)OCC(=O)Nc2cccc(S(=O)(=O)N3CCCCC3)c2)o1 -41.4%

Reprinted at random: 4 entries already listed
Lipid storage change, negative = inhibition, inconclusive:
O=C1CC(Cc2ccccc2)C(=O)N1c1ccccn1 (stereo unspecified) -4.74%
Cn1nnnc1SCC(=O)NCc1cc([N+](=O)[O-])ccc1O 50.1%
COc1ccc(OCC(=O)NNC(=S)NC(=O)C2CCCCC2)cc1 55.2%
COC(=O)/C=C/c1cnc2ccccc2c1 6.34%

Following part:

Potency, inconclusive:
Cc1ccc2cc(CN(C(=O)c3ccco3)c3ccccc3C)c(=O)[nH]c2c1 2.06 µM [activator, partial curve]
CCCc1nc2ccccc2n1CCOC 0.651 µM [falling, full curve]
Cc1ccc(S(=O)(=O)/N=C(\CN2CCOCC2)N2CCCC2)cc1 0.651 µM [falling, full curve]
C(=N\Nc1nc2ccccc2[nH]1)/c1ccc2ncccc2c1 4.61 µM [activator, single point]
CCCCn1c(N)c(N(CC)C(=O)C2CCN(C(=O)c3ccccc3C)CC2)c(=O)[nH]c1=O 1.84 µM [activator, full curve]
Cc1ccc(C(=O)c2ccccc2C(=O)OCC(=O)NCCc2ccccc2)cc1 16.4 µM [falling, partial curve]
CCOCCCNC(=O)c1ccc2nc(-c3ccc(OC)c(OC)c3)c(-c3ccc(OC)c(OC)c3)nc2c1 14.6 µM [falling, single point]
CCOc1ccc(S(=O)(=O)N(CC(=O)NCC(F)(F)F)Cc2ccco2)cc1 0.0046 µM [falling, full curve, poor fit]
Cc1cc(C=O)c(C)n1-c1cc(C(F)(F)F)ccc1N1CCOCC1 3.66 µM [activator, single point]
CN(C)S(=O)(=O)c1ccc(N2CCCC2)c(C(=O)NNC(=O)COc2ccccc2F)c1 10.3 µM [activator, partial curve]
O=C(O)c1c2c(nc3ccc(S(=O)(=O)N4CCC(C(=O)N5CCCCC5)CC4)cc13)CCCC2 29.1 µM [falling, single point]
CCOC(=O)c1c(C)[nH]c(C(=O)N/N=C\c2ccccc2O)c1C 29.1 µM [falling, single point]
COc1cc(C)ccc1OCCOc1c(C)cc(Cl)cc1Cl 14.6 µM [activator, single point]
O=C1CC(N2CCCN(C3CC(=O)N(c4ccc(F)cc4)C3=O)CC2)C(=O)N1c1ccc(F)cc1 (stereo unspecified) 32.6 µM [falling, partial curve, poor fit]
C#CCn1c(=NC(=O)CN2C(=O)CCC2=O)sc2cccc(OC)c21 25.9 µM [activator, single point]
CNc1ccccc1C(=O)OC 1.46 µM [falling, full curve, poor fit]
COc1ccc(CCNC(=O)C(=O)c2c[nH]c3ccccc23)cc1OC 18.4 µM [activator, single point]
S=c1[nH]nc(-c2ccc3ccccc3n2)n1-c1ccc2ncccc2c1 1.64 µM [activator, full curve]
Cc1ccc(S(=O)(=O)CCC(=O)OCC(=O)Nc2cc(S(=O)(=O)N3CCOCC3)ccc2C)cc1 29.1 µM [falling, single point]
CC1CCCCC1NC(=O)c1cncc(Br)c1 (stereo unspecified) 20.6 µM [activator, single point]
CCN(CC)c1nc2c(c(=O)[nH]c(=O)n2C)n1CCCc1ccccc1 0.651 µM [activator, full curve]
CC(=O)Nc1ccc(S(=O)(=O)Nc2ccccc2C(=O)N2CCCCC2)cc1 2.59 µM [falling, full curve, poor fit]
COc1ccc(C)cc1S(=O)(=O)N(CC(=O)O)c1ccc(F)cc1 0.291 µM [activator, full curve]
Cc1cc(C)n(-c2cc(N3CCOCC3)nc(-c3ccccc3)n2)n1 6.51 µM [activator, single point]
Cc1csc(NC(=O)Cn2cnnn2)n1 18.4 µM [activator, single point]
Cc1ccc(NC(=O)/C(Cl)=C/c2ccccc2)cc1C 8.2 µM [activator, partial curve]
CCN(CC(=O)Nc1c(F)cccc1F)C(=O)c1cc(C)oc1C 29.1 µM [rising, single point]
CCOC(=O)c1sc(NC(=O)CSc2nc3c(cc2C#N)CCCCCC3)c(C#N)c1C 23.1 µM [activator, single point]
COc1ccc(C(=O)Nc2ccccc2C(=O)NCc2ccco2)cc1 29.1 µM [activator, single point]
